Consider two substances from PMC3643660.

Protein sequences, listed by entry. Tags and fused reporters are not part of them.
UniProt P07355: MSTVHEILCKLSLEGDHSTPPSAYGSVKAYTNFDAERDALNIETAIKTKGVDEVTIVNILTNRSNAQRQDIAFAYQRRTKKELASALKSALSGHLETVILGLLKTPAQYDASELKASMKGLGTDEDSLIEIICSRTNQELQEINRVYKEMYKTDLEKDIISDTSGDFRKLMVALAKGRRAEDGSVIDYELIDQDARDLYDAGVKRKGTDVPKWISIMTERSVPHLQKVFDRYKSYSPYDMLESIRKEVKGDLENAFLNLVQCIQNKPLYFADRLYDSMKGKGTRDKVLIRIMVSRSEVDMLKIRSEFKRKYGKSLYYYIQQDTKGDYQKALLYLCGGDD
UniProt P08183: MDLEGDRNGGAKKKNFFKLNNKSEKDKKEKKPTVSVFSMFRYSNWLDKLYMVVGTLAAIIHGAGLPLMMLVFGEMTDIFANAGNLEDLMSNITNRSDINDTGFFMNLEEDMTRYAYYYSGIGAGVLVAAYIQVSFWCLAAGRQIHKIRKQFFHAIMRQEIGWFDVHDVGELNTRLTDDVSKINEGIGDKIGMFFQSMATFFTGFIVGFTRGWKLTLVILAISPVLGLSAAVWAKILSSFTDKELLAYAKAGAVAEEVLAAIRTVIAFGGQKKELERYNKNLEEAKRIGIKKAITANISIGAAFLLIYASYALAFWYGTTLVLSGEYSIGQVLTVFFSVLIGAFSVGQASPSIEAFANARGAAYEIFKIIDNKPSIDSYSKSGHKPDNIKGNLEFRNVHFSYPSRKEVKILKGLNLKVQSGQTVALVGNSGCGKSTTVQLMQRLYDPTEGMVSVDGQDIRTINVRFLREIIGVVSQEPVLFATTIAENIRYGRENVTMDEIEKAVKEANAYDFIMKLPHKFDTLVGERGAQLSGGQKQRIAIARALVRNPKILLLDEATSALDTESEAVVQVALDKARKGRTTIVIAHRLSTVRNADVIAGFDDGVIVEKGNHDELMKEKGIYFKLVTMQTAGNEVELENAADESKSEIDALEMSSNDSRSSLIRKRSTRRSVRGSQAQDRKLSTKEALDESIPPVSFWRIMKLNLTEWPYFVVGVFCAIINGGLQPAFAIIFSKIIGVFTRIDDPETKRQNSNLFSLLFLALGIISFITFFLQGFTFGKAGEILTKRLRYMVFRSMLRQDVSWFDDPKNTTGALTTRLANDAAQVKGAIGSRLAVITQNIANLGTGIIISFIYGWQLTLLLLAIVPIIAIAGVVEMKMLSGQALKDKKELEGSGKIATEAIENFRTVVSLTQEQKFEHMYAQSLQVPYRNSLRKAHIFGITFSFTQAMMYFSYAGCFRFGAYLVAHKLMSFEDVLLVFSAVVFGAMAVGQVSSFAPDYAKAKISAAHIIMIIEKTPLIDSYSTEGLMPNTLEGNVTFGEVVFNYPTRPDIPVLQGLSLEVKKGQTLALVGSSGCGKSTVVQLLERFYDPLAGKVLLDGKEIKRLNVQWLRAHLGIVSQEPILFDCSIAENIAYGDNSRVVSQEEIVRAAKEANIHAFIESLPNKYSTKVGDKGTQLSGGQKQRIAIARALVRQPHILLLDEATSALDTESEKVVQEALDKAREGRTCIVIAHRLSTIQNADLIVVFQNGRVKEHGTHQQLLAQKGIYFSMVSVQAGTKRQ

Assay [1] deals with Anxa2 (human (endogenous in MCF-7/ADR)) (UniProt P07355). The assay can be described thus: co-IP; MCF-7/ADR cells lysed in ice-cold RIPA buffer (150 mM NaCl, 50 mM Tris-HCl pH 7.4, 5 mM EDTA, 1% Triton X-100, 0.1% SDS); 1 mg lysate immunoprecipitated with 2 ug anti-P-gp (JSB-1) or anti-Anxa2 (C10) overnight at 4°C with protein G-Sepharose beads; immunoblotting; normal mouse IgG as …. In general terms: Immunoblotting shows a protein as a band on a membrane.

Assay [2] concerns the target P-glycoprotein (human (endogenous in MCF-7/ADR)) (UniProt P08183). The assay is described as above.

Results are given in words; binding and its absence hold for the method and conditions named. Binding seen in cells or lysates may run through a third protein. Some binding calls cover weakened binding; strength is not graded here.

Regarding “P-glycoprotein (from UniProt P08183 1-1280)”, the binding result in assay [1] was “binds”.
Consider Anxa2 (from UniProt P07355 1-339), for which, in assay [2], the binding result was “binds”.
